{"sequences": {"note": "Protein sequences, listed by entry. Tags and fused reporters are not part of them. Lines headed by an entry give the natural chain unless they say otherwise; changes in a name come on top.", "UniProt P18054": "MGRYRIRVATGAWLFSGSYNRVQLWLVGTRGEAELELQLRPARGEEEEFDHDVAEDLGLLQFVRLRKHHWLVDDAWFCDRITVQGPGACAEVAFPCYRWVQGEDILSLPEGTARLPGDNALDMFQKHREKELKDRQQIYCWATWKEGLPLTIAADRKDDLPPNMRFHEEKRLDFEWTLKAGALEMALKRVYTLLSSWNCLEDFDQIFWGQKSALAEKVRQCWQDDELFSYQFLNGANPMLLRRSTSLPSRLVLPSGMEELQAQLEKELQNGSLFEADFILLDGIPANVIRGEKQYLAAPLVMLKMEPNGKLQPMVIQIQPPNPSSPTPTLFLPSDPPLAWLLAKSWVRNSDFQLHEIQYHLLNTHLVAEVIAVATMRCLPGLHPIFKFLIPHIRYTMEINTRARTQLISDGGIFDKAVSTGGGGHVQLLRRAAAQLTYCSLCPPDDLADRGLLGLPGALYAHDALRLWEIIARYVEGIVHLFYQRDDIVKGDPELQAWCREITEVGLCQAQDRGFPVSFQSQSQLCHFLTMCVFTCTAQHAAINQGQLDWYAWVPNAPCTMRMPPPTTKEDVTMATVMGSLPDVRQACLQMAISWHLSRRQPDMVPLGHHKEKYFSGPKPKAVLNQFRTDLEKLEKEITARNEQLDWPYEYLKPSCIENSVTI"}, "source": "PubChem BioAssay AID1671190", "about": "(National Center for Advancing Translational Sciences (NCATS), 2021)", "note": "Several values for one entry are separate records, joined by “and”; a condition that tells them apart may be missing. Equal values may be shown once. Among all 580,000 compounds or so, about 6,100 (1.1%) were called active. Inconclusive results, whose numbers are uncertain, are shown with a selection of clear calls. Calls come from the whole dose curve; as a rule, active = well fitted inhibition curve with a large enough effect; inconclusive = small, poorly fitted or top-dose-only effect, or another doubt; inactive = no such curve, though single readings can be large or run the other way. Potencies beside an inconclusive call are fits to weak or partial responses and may not hold up. % is set by controls: 0 for no effect and ±100 for the full control effect; potency is the fitted concentration of half-maximal effect."}
{"molecular_target": "Polyunsaturated fatty acid lipoxygenase ALOX12 (Homo sapiens) (UniProt P18054)", "assay": "Primary qHTS assay for inhibitors of human arachidonate 12S-lipoxygenase (ALOX12): Round 2", "details": "purified 12hLO, xylenol orange hydroperoxide absorbance; activity change, negative = inhibition: at 108 µM (top of the series)", "method_in_brief": "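Hydroperoxide product was detected by ferrous iron/xylenol orange as the 573 to 405 nm absorbance ratio. Arachidonic acid at 40 uM (final) was turned over for 30 min at room temperature by 150 nM human 12hLO, pH 7.0 Hepes buffer, after 15 min compound preincubation.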"}
{"compound": "NCCc1nc2ccccc2s1", "activity change, negative = inhibition": "inactive: 33.4%"}
{"compound": "CC(=O)[C@H]1CCC2C3CC[C@H]4C[C@@H](O)CC[C@]4(C)C3CC[C@@]21C", "note": "(stereo partly drawn)", "activity change, negative = inhibition": "inactive: -11.2%"}
{"compound": "Cc1ccc2cc3c(ccc4ccccc43)c3c2c1CC3", "activity change, negative = inhibition": "inactive: 5.43%"}
{"compound": "O=[P+](Cc1ccccc1)Cc1ccccc1", "activity change, negative = inhibition": "inactive: 22%"}
{"compound": "CC(N=Cc1c(O)n(C2CC2)c(=S)[nH]c1=O)c1ccccc1", "note": "(stereo not drawn)", "Potency": "inconclusive: 100 µM [inhibitor, single point]"}
{"compound": "O=C1NC2(CCN(Cc3cccnc3)C2)Oc2ccccc21", "note": "(stereo not drawn)", "activity change, negative = inhibition": "inactive: 14.6% [at 176 µM]"}
{"compound": "O=C(Nc1ccc2n(c1=O)C[C@H]1C[C@@H]2CN(C(=O)c2ccccn2)C1)c1ccccc1", "activity change, negative = inhibition": "inactive: 8.2% [at 176 µM]"}
{"compound": "CC1CC2C(C(O)CC3(C)C(O)CCC23)C2(C)CCC(=O)C=C12", "note": "(stereo not drawn)", "activity change, negative = inhibition": "inactive: -4.62%"}
{"compound": "O=C(Nc1cccc(F)c1)N1CC2(CCNCC2)C1", "Potency": "inconclusive: 39.8 µM [inhibitor, single point]"}
{"compound": "Cc1ccc(-n2nnnc2C2(NC(C)C)CCCCC2)cc1", "activity change, negative = inhibition": "inactive: 4.58%"}
{"compound": "CCOP(=O)(/C=C(\\Cl)c1ccccc1)C(O)c1ccc(F)cc1", "note": "(stereo not drawn)", "activity change, negative = inhibition": "inactive: -11.7%"}
{"compound": "COc1ccccc1-n1c(-c2ccccc2Cl)nc2ccccc2c1=O", "activity change, negative = inhibition": "inactive: -0.252%"}
{"compound": "CCCCCCn1c(=O)c(C(=O)Nc2ncccc2O)c(O)c2ccccc21", "activity change, negative = inhibition": "inactive: 11.8%"}
{"compound": "C=CCNC(=O)CSC(c1ccccc1)c1ccc(Cl)cc1", "note": "(stereo not drawn)", "Potency": "inconclusive: 35.5 µM [inhibitor, partial curve]"}
{"compound": "COc1ccc2c(c1)CC1(CN2C)C(=O)NC(=O)N(c2ccc(C)cc2)C1=O", "note": "(stereo not drawn)", "Potency": "inconclusive: 50.1 µM [inhibitor, single point]"}
{"compound": "Cn1cc(C(=O)OCC(=O)NC(=O)NC2CCCC2)c2ccccc21", "activity change, negative = inhibition": "inactive: -9.44%"}
{"compound": "CNC(=O)C1CCN(C(=O)c2cn(Cc3ccccc3)c3ccccc23)CC1", "activity change, negative = inhibition": "inactive: 11.9%"}
{"compound": "CCOC(=O)c1c(C)n(Cc2ccc3c(c2)OCO3)c2ccc(O)cc12", "Potency": "inconclusive: 39.8 µM [inhibitor, partial curve, poor fit]"}
{"compound": "CC(C)N1CCN(Cc2ccco2)CC1", "activity change, negative = inhibition": "inactive: -44%"}
{"compound": "CCc1ccc(CNCCc2c[nH]c3ccccc23)cc1", "Potency": "active: 891 nM and inconclusive: 15.8 µM [inhibitor, full curve, poor fit]"}
{"compound": "COc1ccc(OC)c(CN2CCN(C(=O)COc3cccc(C)c3)CC2)c1", "Potency": "inconclusive: 1.41 µM [inhibitor, full curve, poor fit]"}
{"compound": "CCCCn1c(O)c(C(CC)=NCc2ccc(F)cc2)c(=O)[nH]c1=O", "Potency": "inconclusive: 79.4 µM [inhibitor, single point]"}
{"compound": "Cc1ccsc1/C=C1\\C(=O)NC(=S)N(C)C1=O", "Potency": "inconclusive: 35.5 µM [inhibitor, partial curve, poor fit]"}
{"compound": "COc1ccc(C2=NCC(=O)N(CC(=O)Nc3ccc(F)cc3F)c3sc4c(c32)CCC4)cc1", "activity change, negative = inhibition": "inactive: -13.6%"}
{"compound": "O=C1NC(=S)NC(=O)C1c1ccccc1", "Potency": "active: 31.6 µM"}
{"compound": "Cc1cccc(N2C(=O)NC(=O)/C(=C\\c3ccc(N4CCOCC4)cc3)C2=O)c1", "Potency": "inconclusive: 89.1 µM [inhibitor, partial curve, poor fit]"}
{"compound": "c1ccc(CCNCc2cccnc2)cc1", "Potency": "inconclusive: 15.8 µM [inhibitor, single point]"}
{"compound": "CCCNC1CNC1", "Potency": "inconclusive: 10.6 µM [inhibitor, partial curve, poor fit]"}
{"compound": "CP(=O)(O)C1=CCNCC1", "activity change, negative = inhibition": "inactive: 5.43%"}
{"compound": "COc1ccc(NP(=O)(Oc2ccc(Cl)cc2)Oc2ccc(Cl)cc2)cc1OC", "activity change, negative = inhibition": "inactive: -18.8%"}
{"compound": "Oc1cc2c(cc1CN1CCN(c3ccc(F)cc3)CC1)OCO2", "Potency": "inconclusive: 20 µM [inhibitor, partial curve, poor fit]"}
{"compound": "CN(CC=CCN(C)P(=S)(N1CC1)N1CC1)P(=S)(N1CC1)N1CC1", "Potency": "inconclusive: 25.1 µM [inhibitor, partial curve]"}
{"compound": "Cn1cccc1/C=C1\\C(=O)NC(=O)N(Cc2ccccc2)C1=O", "activity change, negative = inhibition": "inactive: -29.4%"}
{"compound": "O=[N+]([O-])c1ccc(N2CCCCCC2)c2ncccc12", "Potency": "inconclusive: 10 µM [inhibitor, full curve, poor fit]"}
{"compound": "C(#CCN1CCCCC1)COCc1ccccc1", "activity change, negative = inhibition": "inactive: 3.82%"}
{"compound": "CC1(N2CCC(n3c([C@@H]4CCCNC4)nc4ccccc43)CC2)CCCCCCC1", "Potency": "inconclusive: 24.3 µM [inhibitor, single point]"}
{"compound": "O=C(CN1CC=C(c2ccccc2)CC1)NC(=O)NCc1ccccc1", "Potency": "inconclusive: 44.7 µM [inhibitor, partial curve, poor fit]"}
{"compound": "O=C(CSC(c1ccccc1)c1ccc(Cl)cc1)NCc1cccs1", "note": "(stereo not drawn)", "Potency": "inconclusive: 100 µM [inhibitor, single point]"}
{"compound": "CC1CCC(=O)O1", "note": "(stereo not drawn)", "activity change, negative = inhibition": "inactive: 3.15% [at 176 µM]"}
{"compound": "COc1cccc(N2C(=O)NC(=O)/C(=C/c3ccc4c(c3)Cc3ccccc3-4)C2=O)c1", "Potency": "inconclusive: 39.8 µM [inhibitor, partial curve, poor fit]"}
{"compound": "CN1CC[C@@]2(c3cccc(O)c3)Cc3nc4ccccc4cc3C[C@H]2C1", "Potency": "inconclusive: 35.5 µM [inhibitor, single point]"}
{"compound": "CC(Cc1ccccc1)NC(=O)Cc1ccc([N+](=O)[O-])cc1", "note": "(stereo not drawn)", "Potency": "inconclusive: 17.8 µM [inhibitor, partial curve, poor fit]"}
{"compound": "Oc1ccccc1C1NCc2ccccc2-n2cccc21", "note": "(stereo not drawn)", "Potency": "inconclusive: 31.6 µM [inhibitor, partial curve, poor fit]"}
{"compound": "COc1ccc(CN2C(=O)NC(=O)/C(=C\\c3cc(OC)c(OC)c(OC)c3)C2=O)cc1", "Potency": "inconclusive: 10 µM [inhibitor, partial curve, poor fit]"}
{"compound": "C=CCn1c(C)c(C=C2C(=O)NC(=O)NC2=O)c2ccccc21", "activity change, negative = inhibition": "inactive: 12.9%"}
{"compound": "CC1OC(OC2CCC3(C=O)[C@H]4CCC5(C)C(C6=CC(=O)OC6)CCC5(O)[C@@H]4CCC3(O)C2)CC(O)C1O", "note": "(stereo partly drawn)", "activity change, negative = inhibition": "inactive: -8.7%"}
{"compound": "CCn1c(NN=O)nc2ccccc21", "Potency": "inconclusive: 35.5 µM [inhibitor, single point]"}
{"compound": "Cc1ccc(-c2nn(Cc3ccccc3)cc2C=O)cc1C", "activity change, negative = inhibition": "inactive: -4.21%"}
{"compound": "O=C(Cc1ccccc1)N1CCN(CCCc2ccccc2)CC1", "Potency": "active: 0.891 µM"}
{"compound": "N#Cc1ccc(CN2CCC3(CC2)C(=O)Nc2ccccc23)cc1", "Potency": "inconclusive: 79.4 µM [inhibitor, partial curve, poor fit]"}
{"compound": "COc1cc(C(=O)N2C[C@H]3C[C@@H](C2)c2cccc(=O)n2C3)cc(OC)c1OC", "activity change, negative = inhibition": "inactive: 3.9%"}
{"compound": "Oc1cc2c(cc1O)[C@H]1c3ccccc3CN[C@H]1CC2", "Potency": "inconclusive: 5.62 µM [inhibitor, full curve, poor fit] and active: 11.2 µM"}
{"compound": "CN(Cc1ccccc1)C[C@H]1CN2CC[C@H]1C[C@@H]2CNC(=O)Nc1ccsc1", "activity change, negative = inhibition": "inactive: -16.7% [at 176 µM]"}
{"compound": "COc1cc2[nH]c(=O)n(-c3ccccc3)c(=O)c2cc1OC", "activity change, negative = inhibition": "inactive: 0%"}
{"compound": "Cc1ccc(/C=C2\\C(=O)NC(=O)N(Cc3ccccc3Cl)C2=O)o1", "Potency": "active: 31.6 µM"}
{"compound": "CC12CC[C@H]3[C@@H](CCC4(O)CC(O[N+](=O)[O-])CCC34CO[N+](=O)[O-])C1(O)CCC2C1=CC(=O)OC1", "note": "(stereo partly drawn)", "Potency": "inconclusive: 44.7 µM [inhibitor, partial curve, poor fit]"}
{"compound": "COc1ccc(CNCCc2cccc(Cl)c2)cc1", "Potency": "inconclusive: 0.251 µM [inhibitor, full curve, poor fit]"}
{"compound": "CC(=NCc1ccco1)c1c(O)n(-c2ccc(Cl)cc2)c(=O)[nH]c1=O", "Potency": "inconclusive: 112 µM [inhibitor, partial curve, poor fit]"}
{"compound": "Cc1ccccc1CN1CCN(c2ccc(Cl)cc2)CC1", "activity change, negative = inhibition": "inactive: -20.5%"}
{"compound": "CC[C@H]1C=CC=CC[C@@H](C)[C@H](O)[C@@](C)(O)C(=O)[C@@H](C)[C@H](O)[C@@H](C)C(=O)[C@@H](C)[C@H](O)[C@@H](C)C=CC(=O)O[C@@H]2[C@@H](C)[C@H](CC1)O[C@]1(CC[C@H](C)[C@H](C[C@@H](C)O)O1)[C@H]2C", "Potency": "inconclusive: 48.5 µM [inhibitor, single point]"}
{"compound": "COC(=O)C1=C(c2cccc(C#N)c2)C[C@@H]2CC[C@H]1N2C(=O)N1CCc2cc(OC)c(OC)cc2C1", "Potency": "inconclusive: 5.01 µM [inhibitor, full curve, poor fit]"}
{"compound": "Cc1[nH]c2ccc(C#N)cc2c1CCN", "activity change, negative = inhibition": "inactive: 0.0493%"}
{"compound": "Fc1ccc(C(OCCN2CCN(C/C=C\\c3ccccc3)CC2)c2ccc(F)cc2)cc1", "Potency": "inconclusive: 39.8 µM [inhibitor, partial curve, poor fit]"}
{"compound": "O=c1[nH]c(=S)[nH]c(O)c1N=Nc1cccc(S(=O)(=O)N2CCOCC2)c1", "Potency": "active: 39.8 µM"}
{"compound": "CC1=NCCc2c1[nH]c1ccccc21", "activity change, negative = inhibition": "inactive: -25.7%"}
{"compound": "Cc1ccccc1N1C(=O)NC(=O)/C(=C/c2ccc(N3CCOCC3)o2)C1=O", "Potency": "inconclusive: 100 µM [inhibitor, single point]"}
{"compound": "COC(=O)N1CCC2(CC1)C(=O)NN=C2c1cccnc1", "Potency": "inconclusive: 89.1 µM [inhibitor, partial curve]"}
{"compound": "CCOc1ccc(N=Cc2c(O)n(-c3cc(C)cc(C)c3)c(=O)[nH]c2=O)cc1", "Potency": "inconclusive: 126 µM [inhibitor, single point]"}
{"compound": "CC(C)(C)CC(C)(C)NCCc1ccccc1", "Potency": "inconclusive: 44.7 µM [inhibitor, partial curve, poor fit]"}
{"compound": "COc1ccc(-n2c(/C=C/c3ccc(O)cc3)nc3ccccc3c2=O)cc1", "activity change, negative = inhibition": "inactive: 0%"}
{"compound": "N#CCC1CN2CCC1C(c1ccccc1)C2", "note": "(stereo not drawn)", "Potency": "inconclusive: 89.1 µM [inhibitor, single point]"}
{"compound": "CC(C)(C)P(=O)(c1ccncc1)N1CCCC1", "note": "(stereo not drawn)", "Potency": "inconclusive: 63.1 µM [inhibitor, partial curve, poor fit]"}
